Measured values from paper PMC5374524, “Label-free quantification of calcium-sensor targeting to photoreceptor guanylate cyclase and rhodopsin kinase by backscattering interferometry” (Scientific Reports, 2017).
These are yes or no findings as the source states them, for the method shown. Some entries that bind do so weakly or less than the wild type. For some assays here: Sequences can lack the tags named with a protein.

Amino acid sequences for entries named in this document (tags omitted). Residues count along the entry.
UniProt Q02846, residues 868-1103: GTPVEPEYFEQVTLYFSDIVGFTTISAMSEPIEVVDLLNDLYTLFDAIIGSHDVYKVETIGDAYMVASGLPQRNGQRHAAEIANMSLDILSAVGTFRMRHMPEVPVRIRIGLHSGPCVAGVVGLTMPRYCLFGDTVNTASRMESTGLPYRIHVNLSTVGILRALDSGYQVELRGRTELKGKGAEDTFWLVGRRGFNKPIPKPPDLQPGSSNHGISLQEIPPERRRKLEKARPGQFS

B1: guanylate cyclase-activating protein 2 (GCAP2), myristoylated (natural protein, UniProt P51177 1-204, looked up)
chain: MGQQFSWEEAEENGAVGAADAAQLQEWYKKFLEECPSGTLFMHEFKRFFKVPDNEEATQYVEAMFRAFDTNGDNTIDFLEYVAALNLVLRGTLEHKLKWTFKIYDKDRNGCIDRQELLDIVESIYKLKKACSVEVEAEQQGKLLTPEEVVDRIFLLVDENGDGQLSLNEFVEGARRDKWVMKMLQMDLNPSSWISQQRRKSAMF
modifications: myristoylated
B2: myristoylated bovine recoverin (protein, UniProt P21457 1-202)
chain: MGNSKSGALSKEILEELQLNTKFTEEELSSWYQSFLKECPSGRITRQEFQTIYSKFFPEADPKAYAQHVFRSFDANSDGTLDFKEYVIALHMTSAGKTNQKLEWAFSLYDVDGNGTISKNEVLEIVTAIFKMISPEDTKHLPEDENTPEKRAEKIWGFFGKKDDDKLTEKEFIEGTLANKEILRLIQFEPQKVKEKLKEKKL
modifications: myristoylated

What was measured:
[1] = biological target: MBP-CD: maltose binding protein fused to the catalytic domain of human GC-E (G868-S1103) (human) (UniProt Q02846); assay: backscattering interferometry (BSI); free solution; myristoylated GCAP 0 to 6 μM with constant 375 nM MBP fusion protein; titration buffer with 200 μM Ca2+; MBP lacking a GC-E fragment as reference; both purified
[2] = biological target: T1, GST fusion protein containing the N-terminal 25 amino acids of bovine GRK1 (bovine) (UniProt P28327); assay: backscattering interferometry (BSI); free solution, label-free; recoverin dilution series with constant 4 μM GST-NRK; 20 mM HEPES/KOH pH 7.5, 100 mM NaCl, 1 mM MgCl2, 1 mM EGTA (no Ca2+); GST alone as reference; both purified
T1 sequence: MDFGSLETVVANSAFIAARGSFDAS

Binder	binding [1]	binding [2]
B1	binds	–
B2	–	no binding (condition: in the absence of Ca2+ (1 mM EGTA))
